PubChem BioAssay AID1224827, NIAID – 2016

Aim: 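Confirm genes whose knock-down changes LPS-driven TNF promoter activity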 (follow-up of hits)
Cell system: RAW264.7 G9 mouse macrophage reporter clone
Reagent: single siRNA against mouse genes, 100 nM siRNA
Timing: siRNA for 2 days, then LPS about 16 h
Challenge: bacterial lipopolysaccharide (LPS), 10 ng/ml, cells fixed after overnight (about 16 h) stimulation
Measurement: 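TNF promoter reporter red fluorescence in nuclei, background subtracted, normalised per plate and to non-targeting control siRNA, as z-scores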
Scale: TNF reporter z-score, mean and TNF reporter z-score: higher = stronger Tnf promoter reporter signal; gene median z, three same-vendor siRNAs: higher = stronger Tnf reporter signal for the gene
Active means: 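Active siRNA: replicate-mean z-score of 2 or more, or -2 or less; no calls for control wells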
Here is an unselected part of about 3,800 reagents tested. About 2,200 of all reagents (57%) count as active. 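Active means a strong reporter change in either direction; calls are per siRNA, not per gene; qiagen siRNAs gave weaker effects.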 A number with no mark means an inactive call. Reagents against one gene are numbered here. No sequences are given here.

Gene | reagent | TNF reporter z-score, mean | gene median z, three same-vendor siRNAs | TNF reporter z-score, repeat 1 | TNF reporter z-score, repeat 2
Arhgef1 | 1 | -1.4 | -3.23 | -2.04 | -0.748
Arhgef1 | 2 | -2.99 (active) | -3.23 | -1.57 | -4.41
Arhgef1 | 3 | -5.02 (active) | -3.23 | -4.61 | -5.43
Arhgef1 | 4 | 3.34 (active) | 0.606 | 5.88 | 0.805
Arhgef1 | 5 | 0.275 | 0.606 | 0.905 | -0.355
Arhgef1 | 6 | -0.549 | 0.606 | 0.406 | -1.5
Zfp286 | 1 | -0.203 | -1.66 | -1.22 | 0.814
Zfp286 | 2 | -1.66 | -1.66 | -2.04 | -1.29
Zfp286 | 3 | -3.57 (active) | -1.66 | -4.46 | -2.67
Zfp286 | 4 | 5.24 (active) | 2.21 | 8.66 | 1.82
Zfp286 | 5 | 1.01 | 2.21 | 2.61 | -0.591
Zfp286 | 6 | 1.19 | 2.21 | 3.39 | -1.01
Capns1 | 1 | -0.378 | -3.93 | -0.0337 | -0.722
Capns1 | 2 | -3.93 (active) | -3.93 | -4.25 | -3.6
Capns1 | 3 | -5.22 (active) | -3.93 | -4.82 | -5.62
Capns1 | 4 | -0.814 | -0.885 | -0.848 | -0.779
Capns1 | 5 | -1.11 | -0.885 | -0.922 | -1.29
Capns1 | 6 | -0.695 | -0.885 | 0.275 | -1.67
Mob3b | 1 | -0.967 | -5.16 | -1.48 | -0.458
Mob3b | 2 | -5.23 (active) | -5.16 | -5.08 | -5.39
Mob3b | 3 | -5.41 (active) | -5.16 | -5.24 | -5.57
Krt79 | 1 | -3.49 (active) | -3.83 | -3.54 | -3.44
Krt79 | 2 | -4.05 (active) | -3.83 | -3.55 | -4.54
Krt79 | 3 | -4.61 (active) | -3.83 | -5.12 | -4.11
Krt79 | 4 | 1.43 | 0.184 | 1.97 | 0.886
Krt79 | 5 | 1.24 | 0.184 | 2.99 | -0.517
Krt79 | 6 | -2.68 (active) | 0.184 | -2.88 | -2.48

Continued (7 carried over from the part before).
Gene | reagent | TNF reporter z-score, mean | gene median z, three same-vendor siRNAs | TNF reporter z-score, repeat 1 | TNF reporter z-score, repeat 2
Mob3b | 3 | -5.41 (active) | -5.16 | -5.24 | -5.57
Krt79 | 1 | -3.49 (active) | -3.83 | -3.54 | -3.44
Krt79 | 2 | -4.05 (active) | -3.83 | -3.55 | -4.54
Krt79 | 3 | -4.61 (active) | -3.83 | -5.12 | -4.11
Krt79 | 4 | 1.43 | 0.184 | 1.97 | 0.886
Krt79 | 5 | 1.24 | 0.184 | 2.99 | -0.517
Krt79 | 6 | -2.68 (active) | 0.184 | -2.88 | -2.48
Nr1d1 | 1 | -1.46 | -3.48 | -2.19 | -0.737
Nr1d1 | 2 | -3.48 (active) | -3.48 | -3.94 | -3.01
Nr1d1 | 3 | -4.36 (active) | -3.48 | -4.14 | -4.58
Nr1d1 | 4 | -2.36 (active) | -2.77 | -2.58 | -2.14
Nr1d1 | 5 | -2.06 (active) | -2.77 | -1.17 | -2.95
Nr1d1 | 6 | -3.13 (active) | -2.77 | -2.98 | -3.28
Lrrc59 | 1 | -1.35 | -3.05 | -0.932 | -1.77
Lrrc59 | 2 | -3.05 (active) | -3.05 | -2.75 | -3.34
Lrrc59 | 3 | -4.73 (active) | -3.05 | -5.1 | -4.37
Lrrc59 | 4 | 4.57 (active) | 0.446 | 8.21 | 0.93
Lrrc59 | 5 | -0.167 | 0.446 | 0.819 | -1.15
Lrrc59 | 6 | -0.733 | 0.446 | 0.0729 | -1.54
Nagpa | 1 | 0.0396 | -0.677 | 0.151 | -0.0715
Nagpa | 2 | -0.0454 | -0.677 | -1.28 | 1.19
Nagpa | 3 | -4.95 (active) | -0.677 | -4.62 | -5.27
Nagpa | 4 | 1.33 | -0.0614 | 3.22 | -0.549
Nagpa | 5 | -0.0614 | -0.0614 | 0.0827 | -0.206
Nagpa | 6 | -0.606 | -0.0614 | 0.511 | -1.72
Hmga1 | 1 | -1.9 | -2.81 | -1.77 | -2.04
Hmga1 | 2 | -2.81 (active) | -2.81 | -2.76 | -2.86
Hmga1 | 3 | -5.42 (active) | -2.81 | -4.89 | -5.94
Hmga1 | 4 | 2.23 (active) | 1.27 | 4.19 | 0.26
Hmga1 | 5 | 1.45 | 1.27 | 2.23 | 0.675
Hmga1 | 6 | 1.2 | 1.27 | 1.86 | 0.536
Cercam | 1 | 3.87 (active) | 0.182 | 5.09 | 2.66
Cercam | 2 | 0.171 | 0.182 | -0.0135 | 0.355
Cercam | 3 | -1.92 | 0.182 | -3.85 | 0.0087
Cercam | 4 | 0.813 | -0.734 | 2.2 | -0.57
Cercam | 5 | 0.163 | -0.734 | 1.22 | -0.897
Cercam | 6 | -1.83 | -0.734 | -1.79 | -1.87
